The target of this test is T1, QN, N-terminal fragment of collagen ColQ containing the proline-rich motif (PRAD), with a flag epitope at the C-terminus (UniProt Q03637).
T1 sequence: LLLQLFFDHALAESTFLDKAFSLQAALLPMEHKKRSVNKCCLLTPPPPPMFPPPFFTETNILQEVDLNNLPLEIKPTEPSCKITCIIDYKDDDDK
Description: co-expression of AChET and QN in COS cells; sedimentation of secreted forms.

Chains of the proteins cited; added tags and fusions are not shown. Lines headed by an entry give the natural chain unless they say otherwise; changes in a name come on top.
UniProt P07692: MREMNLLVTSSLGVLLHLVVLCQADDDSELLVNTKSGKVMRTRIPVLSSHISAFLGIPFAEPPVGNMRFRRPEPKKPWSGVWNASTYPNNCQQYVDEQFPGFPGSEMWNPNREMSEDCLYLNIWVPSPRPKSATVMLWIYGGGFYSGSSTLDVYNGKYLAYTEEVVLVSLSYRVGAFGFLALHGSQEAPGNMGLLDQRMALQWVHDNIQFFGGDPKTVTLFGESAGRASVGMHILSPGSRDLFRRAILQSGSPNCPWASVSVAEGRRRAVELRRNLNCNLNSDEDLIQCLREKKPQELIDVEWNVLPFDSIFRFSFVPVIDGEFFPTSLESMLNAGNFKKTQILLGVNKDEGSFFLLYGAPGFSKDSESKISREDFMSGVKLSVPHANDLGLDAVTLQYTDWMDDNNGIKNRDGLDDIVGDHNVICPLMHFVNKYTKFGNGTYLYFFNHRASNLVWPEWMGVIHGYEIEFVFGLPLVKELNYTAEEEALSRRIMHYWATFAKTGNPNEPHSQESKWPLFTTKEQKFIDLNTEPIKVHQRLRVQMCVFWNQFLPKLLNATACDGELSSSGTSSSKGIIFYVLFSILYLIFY

Results are given in words; binding and its absence hold for the method and conditions named. Some binding calls cover weakened binding; strength is not graded here. Sequences can lack the tags named with a protein.

The record followed here is patent US20080241172A1.

“wild type Torpedo AChET (from UniProt P07692 25-559) (enzyme)”: the binding result is reported as “binds”.
